In the supplement of paper PMC12819154, “High-throughput peptide-centric local stability assay extends protein–ligand identification to membrane proteins, tissues and bacteria” (Nature Structural & Molecular Biology, 2025) one finds log2 fold change data, which are given here for 34 targets.

Sequences of proteins named here, by UniProt entry; tags and fusion partners are left off. A change or cut given only in a name is not applied to a line headed by its entry.
UniProt P16681: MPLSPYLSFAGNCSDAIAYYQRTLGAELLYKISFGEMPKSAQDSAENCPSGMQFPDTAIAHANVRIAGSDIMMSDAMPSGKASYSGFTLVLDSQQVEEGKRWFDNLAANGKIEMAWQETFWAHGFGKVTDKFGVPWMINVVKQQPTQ
UniProt P23894: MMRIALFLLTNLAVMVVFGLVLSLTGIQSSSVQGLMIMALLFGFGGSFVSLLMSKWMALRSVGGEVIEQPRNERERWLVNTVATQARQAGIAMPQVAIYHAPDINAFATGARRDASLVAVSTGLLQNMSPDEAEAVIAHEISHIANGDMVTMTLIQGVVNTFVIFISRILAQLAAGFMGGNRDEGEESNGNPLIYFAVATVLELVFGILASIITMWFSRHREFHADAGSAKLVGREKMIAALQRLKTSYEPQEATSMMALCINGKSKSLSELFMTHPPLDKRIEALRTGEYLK
UniProt P15286: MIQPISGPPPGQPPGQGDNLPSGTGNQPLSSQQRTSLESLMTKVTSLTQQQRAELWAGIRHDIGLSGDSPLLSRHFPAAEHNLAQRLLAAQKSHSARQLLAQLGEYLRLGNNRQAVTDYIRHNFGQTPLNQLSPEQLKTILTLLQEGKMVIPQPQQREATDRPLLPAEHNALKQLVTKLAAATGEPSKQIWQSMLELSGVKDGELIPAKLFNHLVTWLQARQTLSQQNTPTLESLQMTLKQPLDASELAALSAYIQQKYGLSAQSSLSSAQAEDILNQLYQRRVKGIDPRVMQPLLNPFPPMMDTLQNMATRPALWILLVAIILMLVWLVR
UniProt P0CB62: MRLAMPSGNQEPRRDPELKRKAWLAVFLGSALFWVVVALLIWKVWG
UniProt P23840: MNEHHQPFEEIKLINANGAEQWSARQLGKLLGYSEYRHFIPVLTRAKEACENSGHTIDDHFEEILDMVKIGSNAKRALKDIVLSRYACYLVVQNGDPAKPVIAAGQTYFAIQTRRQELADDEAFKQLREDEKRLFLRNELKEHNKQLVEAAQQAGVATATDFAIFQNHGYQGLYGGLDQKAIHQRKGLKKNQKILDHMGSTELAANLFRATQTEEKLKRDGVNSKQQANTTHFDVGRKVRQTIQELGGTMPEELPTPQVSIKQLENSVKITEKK
UniProt P10423: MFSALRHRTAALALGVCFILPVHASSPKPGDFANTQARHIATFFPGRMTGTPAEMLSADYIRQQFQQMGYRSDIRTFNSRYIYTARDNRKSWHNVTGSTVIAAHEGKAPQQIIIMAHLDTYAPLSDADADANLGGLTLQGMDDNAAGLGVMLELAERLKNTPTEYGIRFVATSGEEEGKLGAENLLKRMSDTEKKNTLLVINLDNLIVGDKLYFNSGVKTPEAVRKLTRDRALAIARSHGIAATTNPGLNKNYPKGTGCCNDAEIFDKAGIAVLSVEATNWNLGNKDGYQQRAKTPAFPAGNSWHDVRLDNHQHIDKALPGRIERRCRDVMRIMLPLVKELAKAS
UniProt P14377: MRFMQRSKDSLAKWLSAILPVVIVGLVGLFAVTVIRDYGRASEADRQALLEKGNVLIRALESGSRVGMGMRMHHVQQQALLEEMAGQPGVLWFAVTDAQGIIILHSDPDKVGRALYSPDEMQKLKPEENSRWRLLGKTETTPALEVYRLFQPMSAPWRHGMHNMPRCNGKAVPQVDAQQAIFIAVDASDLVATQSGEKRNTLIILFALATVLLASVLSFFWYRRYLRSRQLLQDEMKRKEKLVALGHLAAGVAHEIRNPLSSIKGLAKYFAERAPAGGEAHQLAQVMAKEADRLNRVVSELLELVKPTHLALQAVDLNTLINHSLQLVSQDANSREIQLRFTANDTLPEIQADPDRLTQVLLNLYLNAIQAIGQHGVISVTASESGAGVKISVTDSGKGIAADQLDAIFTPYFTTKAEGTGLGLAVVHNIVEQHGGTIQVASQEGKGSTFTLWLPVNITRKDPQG
UniProt P14565: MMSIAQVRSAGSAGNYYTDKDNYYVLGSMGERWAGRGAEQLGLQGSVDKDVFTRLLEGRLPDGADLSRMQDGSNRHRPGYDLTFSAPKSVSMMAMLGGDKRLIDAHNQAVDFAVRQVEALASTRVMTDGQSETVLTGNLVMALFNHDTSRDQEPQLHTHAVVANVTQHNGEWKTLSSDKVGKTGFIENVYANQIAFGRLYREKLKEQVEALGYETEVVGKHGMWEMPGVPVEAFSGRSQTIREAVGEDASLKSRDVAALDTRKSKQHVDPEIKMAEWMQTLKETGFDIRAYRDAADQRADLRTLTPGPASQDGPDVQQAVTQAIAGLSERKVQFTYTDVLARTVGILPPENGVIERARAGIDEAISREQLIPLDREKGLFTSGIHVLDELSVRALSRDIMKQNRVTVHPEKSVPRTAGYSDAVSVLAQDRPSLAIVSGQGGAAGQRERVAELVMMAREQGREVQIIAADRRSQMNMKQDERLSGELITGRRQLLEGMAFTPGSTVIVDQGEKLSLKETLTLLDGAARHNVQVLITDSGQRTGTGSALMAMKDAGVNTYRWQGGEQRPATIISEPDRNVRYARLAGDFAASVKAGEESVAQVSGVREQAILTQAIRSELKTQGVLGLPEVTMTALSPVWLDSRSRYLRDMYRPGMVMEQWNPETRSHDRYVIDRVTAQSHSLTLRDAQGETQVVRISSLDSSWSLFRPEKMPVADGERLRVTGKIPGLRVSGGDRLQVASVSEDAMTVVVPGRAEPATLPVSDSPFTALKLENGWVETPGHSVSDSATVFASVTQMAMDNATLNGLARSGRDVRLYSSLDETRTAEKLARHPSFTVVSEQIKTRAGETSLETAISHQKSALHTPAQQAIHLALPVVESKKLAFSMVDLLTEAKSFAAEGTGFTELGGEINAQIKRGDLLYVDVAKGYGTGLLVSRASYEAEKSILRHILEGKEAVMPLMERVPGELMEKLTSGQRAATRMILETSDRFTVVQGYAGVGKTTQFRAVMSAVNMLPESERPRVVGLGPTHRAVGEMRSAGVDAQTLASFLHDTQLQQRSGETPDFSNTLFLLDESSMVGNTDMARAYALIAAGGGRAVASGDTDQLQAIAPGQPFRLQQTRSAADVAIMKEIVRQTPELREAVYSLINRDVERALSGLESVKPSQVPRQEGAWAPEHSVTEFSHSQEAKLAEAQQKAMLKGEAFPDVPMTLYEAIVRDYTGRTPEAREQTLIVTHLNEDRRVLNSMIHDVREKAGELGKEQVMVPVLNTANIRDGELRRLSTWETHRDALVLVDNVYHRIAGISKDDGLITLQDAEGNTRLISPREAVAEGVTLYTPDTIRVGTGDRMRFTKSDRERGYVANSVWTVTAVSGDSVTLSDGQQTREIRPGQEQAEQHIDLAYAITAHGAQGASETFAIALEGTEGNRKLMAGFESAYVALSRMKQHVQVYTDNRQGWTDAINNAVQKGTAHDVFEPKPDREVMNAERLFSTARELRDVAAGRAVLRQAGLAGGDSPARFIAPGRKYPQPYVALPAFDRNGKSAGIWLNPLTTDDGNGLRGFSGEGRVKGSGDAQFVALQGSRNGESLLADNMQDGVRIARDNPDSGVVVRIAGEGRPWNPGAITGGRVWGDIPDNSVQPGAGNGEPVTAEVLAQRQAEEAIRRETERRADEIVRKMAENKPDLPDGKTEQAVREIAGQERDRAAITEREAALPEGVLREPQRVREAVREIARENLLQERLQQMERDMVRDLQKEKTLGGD
UniProt P0DP64: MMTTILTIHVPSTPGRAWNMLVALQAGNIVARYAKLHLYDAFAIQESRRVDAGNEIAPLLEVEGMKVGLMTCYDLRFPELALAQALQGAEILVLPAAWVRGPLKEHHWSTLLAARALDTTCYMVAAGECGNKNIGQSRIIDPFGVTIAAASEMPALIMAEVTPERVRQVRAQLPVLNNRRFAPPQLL
UniProt P23839: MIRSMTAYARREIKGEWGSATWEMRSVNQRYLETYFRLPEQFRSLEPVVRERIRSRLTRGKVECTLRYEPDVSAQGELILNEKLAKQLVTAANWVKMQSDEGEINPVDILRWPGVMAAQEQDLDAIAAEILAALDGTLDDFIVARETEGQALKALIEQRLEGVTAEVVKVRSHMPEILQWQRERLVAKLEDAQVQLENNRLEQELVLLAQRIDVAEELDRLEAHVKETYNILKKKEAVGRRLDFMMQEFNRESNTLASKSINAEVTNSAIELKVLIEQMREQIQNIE
UniProt P12999: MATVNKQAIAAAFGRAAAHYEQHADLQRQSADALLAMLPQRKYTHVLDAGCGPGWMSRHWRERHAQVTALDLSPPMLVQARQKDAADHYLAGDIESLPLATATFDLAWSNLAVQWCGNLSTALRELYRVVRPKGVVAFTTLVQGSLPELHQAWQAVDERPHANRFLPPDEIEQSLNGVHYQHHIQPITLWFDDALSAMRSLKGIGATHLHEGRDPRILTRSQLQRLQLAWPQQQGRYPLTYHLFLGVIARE
UniProt P15078: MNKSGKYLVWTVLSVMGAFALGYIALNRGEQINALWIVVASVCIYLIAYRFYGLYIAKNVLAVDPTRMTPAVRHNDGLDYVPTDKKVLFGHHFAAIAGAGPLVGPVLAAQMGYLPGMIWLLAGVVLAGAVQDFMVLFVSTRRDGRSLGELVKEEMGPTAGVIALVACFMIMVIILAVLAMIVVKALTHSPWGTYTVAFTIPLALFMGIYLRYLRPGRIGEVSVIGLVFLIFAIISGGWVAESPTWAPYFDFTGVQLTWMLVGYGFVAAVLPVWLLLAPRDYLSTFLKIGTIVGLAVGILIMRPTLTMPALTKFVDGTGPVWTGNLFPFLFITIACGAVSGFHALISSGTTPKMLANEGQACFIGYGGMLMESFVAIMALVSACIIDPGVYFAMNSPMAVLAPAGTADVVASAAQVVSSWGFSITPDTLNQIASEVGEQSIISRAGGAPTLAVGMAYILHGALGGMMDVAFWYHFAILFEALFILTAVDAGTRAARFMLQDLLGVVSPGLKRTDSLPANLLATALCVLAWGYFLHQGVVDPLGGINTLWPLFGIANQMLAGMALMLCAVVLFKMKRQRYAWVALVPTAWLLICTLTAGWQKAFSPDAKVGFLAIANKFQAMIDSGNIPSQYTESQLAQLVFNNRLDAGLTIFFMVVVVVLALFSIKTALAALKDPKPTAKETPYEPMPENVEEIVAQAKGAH
UniProt P11663: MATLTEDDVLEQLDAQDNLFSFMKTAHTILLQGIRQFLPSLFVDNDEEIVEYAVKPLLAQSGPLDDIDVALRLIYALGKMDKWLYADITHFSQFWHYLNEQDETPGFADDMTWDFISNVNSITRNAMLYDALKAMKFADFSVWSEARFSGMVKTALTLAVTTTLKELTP
UniProt P21693: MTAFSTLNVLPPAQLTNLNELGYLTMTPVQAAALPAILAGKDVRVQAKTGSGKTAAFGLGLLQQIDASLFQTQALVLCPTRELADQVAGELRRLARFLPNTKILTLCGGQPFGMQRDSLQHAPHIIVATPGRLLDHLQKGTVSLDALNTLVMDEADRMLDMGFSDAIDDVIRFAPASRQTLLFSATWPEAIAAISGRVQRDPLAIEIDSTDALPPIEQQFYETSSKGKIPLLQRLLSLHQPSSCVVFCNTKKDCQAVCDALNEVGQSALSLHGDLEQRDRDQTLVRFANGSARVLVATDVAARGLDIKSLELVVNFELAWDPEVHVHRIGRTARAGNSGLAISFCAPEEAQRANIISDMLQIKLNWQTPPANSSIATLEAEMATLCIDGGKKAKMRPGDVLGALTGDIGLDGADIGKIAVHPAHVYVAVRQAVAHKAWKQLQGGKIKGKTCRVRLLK
UniProt P17117: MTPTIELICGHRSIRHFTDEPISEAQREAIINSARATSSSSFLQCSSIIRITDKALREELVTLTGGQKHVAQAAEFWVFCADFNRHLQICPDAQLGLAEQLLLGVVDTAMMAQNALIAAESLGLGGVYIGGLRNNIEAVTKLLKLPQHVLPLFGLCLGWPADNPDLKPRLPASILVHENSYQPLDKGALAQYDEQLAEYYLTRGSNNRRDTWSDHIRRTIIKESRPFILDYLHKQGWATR
UniProt P20083: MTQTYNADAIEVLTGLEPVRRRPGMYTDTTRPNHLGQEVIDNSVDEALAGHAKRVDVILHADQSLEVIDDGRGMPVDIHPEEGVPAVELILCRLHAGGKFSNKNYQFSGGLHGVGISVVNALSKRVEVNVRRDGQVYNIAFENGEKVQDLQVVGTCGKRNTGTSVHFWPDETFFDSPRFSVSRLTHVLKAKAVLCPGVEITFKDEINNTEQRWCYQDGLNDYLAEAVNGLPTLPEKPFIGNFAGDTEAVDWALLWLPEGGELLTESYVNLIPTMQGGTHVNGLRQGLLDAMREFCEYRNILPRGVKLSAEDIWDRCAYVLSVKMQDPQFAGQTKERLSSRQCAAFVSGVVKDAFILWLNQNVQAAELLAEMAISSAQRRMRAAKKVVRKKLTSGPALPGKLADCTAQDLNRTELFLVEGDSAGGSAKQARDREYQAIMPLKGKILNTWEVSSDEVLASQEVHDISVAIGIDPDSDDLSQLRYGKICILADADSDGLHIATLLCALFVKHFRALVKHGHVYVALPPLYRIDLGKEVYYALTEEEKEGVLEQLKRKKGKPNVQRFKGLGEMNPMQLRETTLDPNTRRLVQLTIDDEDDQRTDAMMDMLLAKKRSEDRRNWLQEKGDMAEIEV

This is one part of the list. Most entries show no effect beyond the scatter of the controls.

Compound in this assay: CC1(C)S[C@@H]2[C@H](NC(=O)[C@H](N)c3ccccc3)C(=O)N2[C@H]1C(=O)O [ampicillin]
Description: log2 fold change of tryptic peptide abundance, ligand vs vehicle (limited proteolysis) (log2 ratio); higher = more trypsin-susceptible (destabilized). The settings on record: ligand concentration: 10 uM; sample: E. coli crude lysate.
As to “UniProt P14175 (peptide sequence: GQVLIDGVDIAK, peptide start residue: 83)”, the log2 fold change is -0.244. To “UniProt P16681 (peptide sequence: ISFGEMPK, peptide start residue: 32)” belongs -0.112. To “UniProt P21151 (peptide sequence: INLNGGAIALGHPLGCSGAR, peptide start residue: 332)” belongs 0.254; to “UniProt P23894 (peptide sequence: WLVNTVATQAR, peptide start residue: 77)”, -0.186; to “UniProt P21189 (peptide sequence: YAGLIQEGDK, peptide start residue: 617)”, 0.323. To “UniProt P21865 (peptide sequence: QLMIPEQQR, peptide start residue: 621)” belongs 0.574; to “UniProt P11454 (peptide sequence: VDSGKPLVFHQLIQVADNR, peptide start residue: 111)”, 0.699; to “UniProt P22787 (peptide sequence: TVVPGESSATVK, peptide start residue: 396)”, 0.255. For “UniProt P15286 (peptide sequence: HDIGLSGDSPLLSR, peptide start residue: 61)”, the log2 fold change came out at 0.392. To “UniProt P10903 (peptide sequence: VKAEGGSDER, peptide start residue: 385)” belongs 0.234; to “UniProt P0CB62 (peptide sequence: LAMPSGNQEPR, peptide start residue: 3)”, 0.0374. On to “UniProt P10121 (peptide sequence: GFFSWLGFGQK, peptide start residue: 8)”, for which the log2 fold change was -0.5.

In the case of “UniProt P23862 (peptide sequence: LEGQLATLR, peptide start residue: 10)”, the log2 fold change came out at 0.159. To “UniProt P23840 (peptide sequence: ILDHMGSTELAANLFR, peptide start residue: 194)” belongs -0.144; to “UniProt P10423 (peptide sequence: NTPTEYGIR, peptide start residue: 160)”, 0.243; to “UniProt P14377 (peptide sequence: LVALGHLAAGVAHEIR, peptide start residue: 242)”, 0.947. With “UniProt P23331 (peptide sequence: GMRTVVYTAEIDDRFGAGK, peptide start residue: 30)”, the log2 fold change worked out at 0.165. To “UniProt P14565 (peptide sequence: VPGELMEK, peptide start residue: 961)” belongs -0.0796; to “UniProt P10907 (peptide sequence: LKTTSLYVTHDQVEAMTLAQR, peptide start residue: 184)”, -0.222. To “UniProt P0DP64 (peptide sequence: RVDAGNEIAPLLEVEGMK, peptide start residue: 49)” belongs 0.0974; to “UniProt P23839 (peptide sequence: RLDFMMQEFNR, peptide start residue: 241)”, -0.188; to “UniProt P0CF40 (peptide sequence: KWIAHAPLLPGDGE, peptide start residue: 108)”, 0.291. To “UniProt P12999 (peptide sequence: YTHVLDAGCGPGWMSR, peptide start residue: 43)” belongs 0.614. For “UniProt P15028 (peptide sequence: LEQHKER, peptide start residue: 157)”, the log2 fold change came out at 0.308.

On to “UniProt P15078 (peptide sequence: HNDGLDYVPTDKK, peptide start residue: 74)”, for which the log2 fold change was 0.0413. To “UniProt P17410 (peptide sequence: SQEYLTR, peptide start residue: 202)” belongs -0.0626; to “UniProt P11663 (peptide sequence: NAMLYDALK, peptide start residue: 125)”, -0.015; to “UniProt P23842 (peptide sequence: NKEGEGYDEILAR, peptide start residue: 513)”, 0.471.

As to “UniProt P16433 (peptide sequence: WLEAENDPR, peptide start residue: 229)”, the log2 fold change is -0.291. Turning to “UniProt P21693 (peptide sequence: ELADQVAGELR, peptide start residue: 82)”, the log2 fold change is 0.19.

Turning to “UniProt P23873 (peptide sequence: QQNGWTQSELAKK, peptide start residue: 22)”, the log2 fold change turned out to be 0.0977.

As to “UniProt P23841 (peptide sequence: ENPNVDVLFR, peptide start residue: 122)”, the log2 fold change came out at 0.504. To “UniProt P17117 (peptide sequence: ESRPFILDYLHK, peptide start residue: 223)” belongs 0.212; to “UniProt P20083 (peptide sequence: EVYYALTEEEKEGVLEQLKR, peptide start residue: 534)”, 0.373.
